Measured values as given in PubChem BioAssay AID328 (DTP/NCI, 2004).
The list does not hold the whole screen: it gathers tests that were run many times, whatever their T/C, doses with no T/C, and many T/C values between a quarter and a half above the control. Other doses and runs of a compound stand elsewhere. T/C gives the treated animals as a percentage of the vehicle group. Some doses have a count of surviving animals in place of a T/C: the source holds a T/C of zero for them, seemingly a mark for toxic or unscored doses. Some doses without a T/C left all or most animals alive at the check, yet need not have been tolerated: the source hardly ever lists a survival T/C far under the control, and the zero likely stands for such cases as well. Survivors were counted at the toxicity check, usually on the fifth day, unless a day is given; later deaths do not show. Schedules are NCI's codes, read here as Q, the interval in days (D) or hours (H), X, the number of doses. Where survival is the endpoint, this PubChem deposit counts one and a half times the control or more as active, and values a quarter to a half above the control carry no call in these data; other NCI protocols may use other cut-offs. Some doses were run more than once; the values are given in rising order. Some T/C values carry the count of animals alive at the toxicity check (mostly the fifth day); without a count, all were alive then.

Test system: BDF1 mice, P388 leukemia ip, median survival T/C
Assay: NCI In Vivo Anticancer Drug Screen. Data for tumor model P388 Leukemia (intraperitoneal) in B6D2F1 (BDF1) mice
Conditions: T/C endpoint: median survival time, higher T/C = longer survival
Summary of the method: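 Compound-treated tumour-bearing mice were compared with vehicle-treated controls. Survival was recorded, and the value is the treated-group measurement divided by the control-group measurement (T/C).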

[1] = dose: 200.0 mg/kg/injection, schedule: Q01DX009 (ip), vehicle: saline with Tween-80
[2] = dose: 200.0 mg/kg/injection, schedule: Q04DX003 (ip), vehicle: saline
[3] = dose: 100.0 mg/kg/injection, schedule: Q01DX009 (ip), vehicle: saline
[4] = dose: 400.0 mg/kg/injection, schedule: Q01DX009 (ip), vehicle: saline with Tween-80
[5] = dose: 12.5 mg/kg/injection, schedule: Q01DX009 (ip), vehicle: Klucel (hydroxypropylcellulose) (HPC)

For `CCCNCC(O)c1cc(C(F)(F)F)nc2c(C(F)(F)F)cccc12` (stereo not given), the survivor count [1] was 0 of 6.
With `CCCCCCN(CCCCCC)P(=O)(N1CC1)N1CC1` the T/C (dose: 50.0 mg/kg/injection, schedule: Q04DX003 (ip), vehicle: saline with Tween-80) was 127 % of control and the survivor count (dose: 75.0 mg/kg/injection, schedule: Q04DX003 (ip), vehicle: saline with Tween-80) was 6 of 6.
`CS(=O)(=O)OC[C@@H](O)[C@@H](O)COS(C)(=O)=O` was tested, and the T/C (dose: 200.0 mg/kg/injection, schedule: Q01DX009 (ip), vehicle: saline) was 129 % of control and the T/C (dose: 400.0 mg/kg/injection, schedule: Q01DX009 (ip), vehicle: saline) was 131 % of control.
With `COC(=O)C12OCC34C(CC5C(C)=C(O)C(=O)CC5(C)C3C(O)C1O)OC(=O)C(OC(=O)/C=C(\C)C(C)(C)O)C24` (stereo not given) the T/C (dose: 0.05 mg/kg/injection, schedule: Q01DX009 (ip), vehicle: saline) was 132 % of control, the T/C (dose: 0.1 mg/kg/injection, schedule: Q01DX009 (ip), vehicle: saline) was 133 and 140 % of control and the T/C (dose: 0.2 mg/kg/injection, schedule: Q01DX009 (ip), vehicle: saline) was 137 % of control. For the same molecule, the T/C (dose: 0.4 mg/kg/injection, schedule: Q01DX009 (ip), vehicle: saline) was 145 % of control, the T/C (dose: 15.0 micrograms/kg/injection, schedule: Q01DX009 (ip), vehicle: saline + alcohol) was 133 % of control and the T/C (dose: 30.0 micrograms/kg/injection, schedule: Q01DX009 (ip), vehicle: saline + alcohol) was 133 % of control.
`COc1cc(C)c(C#N)c(OC)n1` was tested, and the survivor count (dose: 50.0 mg/kg/injection, schedule: Q01DX005 (ip), vehicle: saline with Tween-80) was 4 of 5, the survivor count (dose: 100.0 mg/kg/injection, schedule: Q01DX005 (ip), vehicle: saline with Tween-80) was 2 of 5 and the survivor count (dose: 200.0 mg/kg/injection, schedule: Q01DX005 (ip), vehicle: saline with Tween-80) was 0 of 5.
`CC(=O)[C@]1(O)Cc2c(O)c3c(c(O)c2[C@@H](OC2CC(N)C(O)C(C)O2)C1)C(=O)c1c(OC(C)C)cccc1C3=O` (stereo not given in full) was tested, and the T/C (dose: 3.13 mg/kg/injection, schedule: Q04DX003 (ip), vehicle: water) was 126 % of control and the T/C (dose: 25.0 mg/kg/injection, schedule: Q04DX003 (ip), vehicle: water) was 135 % of control.
In the case of `CCN1CC2(COC)C(O)CC(OC)C34C5CC6(O)C(OC)C=C(C5C6OC(=O)c5ccc(OC)c(OC)c5)C(C(OC)C23)C14` (stereo not given), the survivor count (dose: 1.5 mg/kg/injection, schedule: Q01DX009 (ip), vehicle: saline with Tween-80) is reported as 6 of 6.
`c1ccc2c(c1)Cc1c(NC3=NCCO3)cccc1-2` was tested, and the survivor count (dose: 200.0 mg/kg/injection, schedule: Q04DX003 (ip), vehicle: saline with Tween-80) was 3 of 6.
In the case of `COC1CCC2=C(C1)C(=O)CC1c3ccccc3CN21` (stereo not given), the survivor count (dose: 100.0 mg/kg/injection, schedule: Q04DX003 (ip), vehicle: saline with Tween-80) is reported as 5 of 6.
In the case of `CCCCNC(C)(C)C(=O)c1cccs1`, the survivor count [2] is reported as 4 of 6.
For `Nc1nc(N)c2cc(CNc3ccc(C(=O)NC(CC(=O)O)CC(=O)O)cc3)ccc2n1`, the survivor count [1] was 6 of 6 and the survivor count (dose: 300.0 mg/kg/injection, schedule: Q01DX009 (ip), vehicle: saline with Tween-80) was 6 of 6.
In the case of `CCCCCCCCCC(=O)OCC1OC(=O)C(C)N(C)C(=O)CN(C)C(=O)C2C(=O)CC(C)N2C(=O)C(C(C)C)NC(=O)C1NC(=O)c1c2nc3c(C(=O)NC4C(=O)NC(C(C)C)C(=O)N5C(C)CC(OC(=O)CCCCCCCCC)C5C(=O)N(C)CC(=O)N(C)C(C(C)C)C(=O)OC4C)ccc(C)c3oc-2c(C)c(=O)c1N` (stereo not given), the survivor count (dose: 1.2 mg/kg/injection, schedule: Q04DX003 (ip), vehicle: saline with Tween-80) is reported as 8 of 8.
In the case of `CC[C@@]1(O)C[C@H](OC2CC(N(C)C)C(O)C(C)O2)c2c(O)c3c(c(O)c2[C@H]1OC1CC(N(C)C)C(O)C(C)O1)C(=O)c1cccc(O)c1C3=O` (stereo not given in full), the T/C (dose: 0.13 mg/kg/injection, schedule: Q01DX010 (ip), vehicle: saline) is reported as 131 % of control, the survivor count (dose: 0.5 mg/kg/injection, schedule: Q01DX010 (ip), vehicle: saline) is reported as 6 of 6 and the survivor count (dose: 1.0 mg/kg/injection, schedule: Q01DX010 (ip), vehicle: saline) is reported as 6 of 6.
`COCC(O)CCl` (stereo not given) was tested, and the survivor count (dose: 400.0 mg/kg/injection, schedule: Q04DX003 (ip), vehicle: saline with Tween-80) was 2 of 6.
In the case of `CCCCCCC(=O)/C=C/c1cccc(Cl)c1`, the survivor count [2] is reported as 6 of 6.
`S=P(S)(c1ccccc1)c1ccccc1` was tested, and the T/C (dose: 161.0 mg/kg/injection, schedule: Q01DX009 (ip), vehicle: saline) was 125 and 145 % of control and the T/C (dose: 322.0 mg/kg/injection, schedule: Q01DX009 (ip), vehicle: saline) was 125 % of control.
With `O=C(OCCC(OC(=O)c1ccccc1)C(COC(=O)c1ccccc1)OC(=O)c1ccccc1)c1ccccc1` (stereo not given) the survivor count (dose: 50.0 mg/kg/injection, schedule: Q01DX009 (ip), vehicle: Klucel (hydroxypropylcellulose) (HPC)) was 6 of 6, the survivor count (dose: 100.0 mg/kg/injection, schedule: Q01DX009 (ip), vehicle: Klucel (hydroxypropylcellulose) (HPC)) was 5 of 6 and the survivor count (dose: 200.0 mg/kg/injection, schedule: Q01DX009 (ip), vehicle: Klucel (hydroxypropylcellulose) (HPC)) was 6 of 6. For the same molecule, the survivor count (dose: 400.0 mg/kg/injection, schedule: Q01DX009 (ip), vehicle: Klucel (hydroxypropylcellulose) (HPC)) was 6 of 6.
With `NC(CO)C(=O)O.[Cl-].[Cl-].[Cl-].[Cl-].[Pt+2]` (stereo not given) the T/C (dose: 12.5 mg/kg/injection, schedule: Q01DX009 (ip), vehicle: saline) was 129 % of control, the T/C (dose: 25.0 mg/kg/injection, schedule: Q01DX009 (ip), vehicle: saline) was 143 % of control and the survivor count [3] was 5 of 6.
`CC(=O)/C=C/c1ccco1` was tested, and the survivor count (dose: 100.0 mg/kg/injection, schedule: Q01DX009 (ip), vehicle: DMSO) was 3 of 6 and the survivor count (dose: 100.0 mg/kg/injection, schedule: Q04DX003 (ip), vehicle: DMSO) was 5 of 6.
With `CC(C)CC(CC(C)C)NCC(C)OC(=O)c1ccc([N+](=O)[O-])cc1` (stereo not given) the survivor count (dose: 400.0 mg/kg/injection, schedule: Q01DX009 (ip), vehicle: water) was 3 of 6.
`CN1CCN(c2ccc([N+](=O)[O-])c3nonc23)CC1` was tested, and the survivor count (dose: 80.0 mg/kg/injection, schedule: Q04DX003 (ip), vehicle: saline with Tween-80) was 5 of 7.
With `CN(C)P(=O)(N(C)C)N1CC1` the T/C (dose: 50.0 mg/kg/injection, schedule: Q04DX003 (ip), vehicle: saline) was 133 % of control and the survivor count (dose: 300.0 mg/kg/injection, schedule: Q04DX003 (ip), vehicle: saline) was 6 of 6.
`S=c1[nH]nc(Nc2ccccc2Cl)s1` was tested, and the survivor count [4] was 0 of 6.
In the case of `[O-][n+]1c(-c2ccccc2)cn2ccccc21`, the survivor count (dose: 400.0 mg/kg/injection, schedule: Q01DX001 (ip), vehicle: saline with Tween-80) is reported as 0 of 6.
`CC(=O)Nc1c(Cl)c(Cl)c2c(c1Cl)Cc1cc(Br)ccc1-2` was tested, and the T/C (dose: 6.25 mg/kg/injection, schedule: Q01DX009 (ip), vehicle: Klucel (hydroxypropylcellulose) (HPC)) was 125 % of control [4 of 6 alive], the T/C [5] was 125 % of control and the survivor count [3] was 5 of 6.
With `O=C(O)C1CC(c2ccccc2)OC1=O` (stereo not given) the survivor count (dose: 400.0 mg/kg/injection, schedule: Q01DX009 (ip), vehicle: gum acacia) was 5 of 6.
`OCCCN1CCC2(CC1)SSC1(CCN(CCCO)CC1)S2` was tested, and the survivor count (dose: 400.0 mg/kg/injection, schedule: Q04DX003 (ip), vehicle: saline) was 0 of 6.
In the case of `CNC(CNC(CO)CC(C)C)Cc1ccc(OCc2ccccc2)cc1` (stereo not given), the survivor count (dose: 50.0 mg/kg/injection, schedule: Q01DX009 (ip), vehicle: saline) is reported as 1 of 6 and the survivor count (dose: 75.0 mg/kg/injection, schedule: Q01DX009 (ip), vehicle: saline) is reported as 0 of 6.
`CC1=Cc2ccc(C)cc2C(=O)C1=O` was tested, and the survivor count [5] was 2 of 6.
`NC(=S)N/N=C/C(=N\NC(N)=S)C(O)C(O)C(O)CO` (stereo not given) was tested, and the survivor count (dose: 200.0 mg/kg/injection, schedule: Q04DX003 (ip), vehicle: saline sonified) was 3 of 6 and the survivor count (dose: 400.0 mg/kg/injection, schedule: Q04DX003 (ip), vehicle: saline sonified) was 1 of 6.
In the case of `O=C/C=C/c1cccc([N+](=O)[O-])c1`, the T/C (dose: 50.0 mg/kg/injection, schedule: Q01DX009 (ip), vehicle: saline with Tween-80) is reported as 134 % of control, the T/C (dose: 100.0 mg/kg/injection, schedule: Q01DX009 (ip), vehicle: saline with Tween-80) is reported as 130 % of control and the T/C [1] is reported as 128 [5 of 6 alive] and 134 % of control. For the same molecule, the survivor count [4] was 3 of 6.
`Cc1c2ccccc2c(C)c2c1ccc1ccccc12` was tested, and the T/C (dose: 9.0 mg/kg/injection, schedule: Q01DX009 (ip), vehicle: saline with Tween-80) was 145 % of control.
